Paper doi:10.1101/2021.01.19.427293
These are yes or no findings as the source states them, for the method shown. In cells and extracts the contact can be indirect. Some entries that bind do so weakly or less than the wild type. Tags and fused reporters may be left off the sequences shown.

Amino acid sequences for entries named in this document (tags omitted). Residues count along the entry.
UniProt C0LGT6, residues 25-1031: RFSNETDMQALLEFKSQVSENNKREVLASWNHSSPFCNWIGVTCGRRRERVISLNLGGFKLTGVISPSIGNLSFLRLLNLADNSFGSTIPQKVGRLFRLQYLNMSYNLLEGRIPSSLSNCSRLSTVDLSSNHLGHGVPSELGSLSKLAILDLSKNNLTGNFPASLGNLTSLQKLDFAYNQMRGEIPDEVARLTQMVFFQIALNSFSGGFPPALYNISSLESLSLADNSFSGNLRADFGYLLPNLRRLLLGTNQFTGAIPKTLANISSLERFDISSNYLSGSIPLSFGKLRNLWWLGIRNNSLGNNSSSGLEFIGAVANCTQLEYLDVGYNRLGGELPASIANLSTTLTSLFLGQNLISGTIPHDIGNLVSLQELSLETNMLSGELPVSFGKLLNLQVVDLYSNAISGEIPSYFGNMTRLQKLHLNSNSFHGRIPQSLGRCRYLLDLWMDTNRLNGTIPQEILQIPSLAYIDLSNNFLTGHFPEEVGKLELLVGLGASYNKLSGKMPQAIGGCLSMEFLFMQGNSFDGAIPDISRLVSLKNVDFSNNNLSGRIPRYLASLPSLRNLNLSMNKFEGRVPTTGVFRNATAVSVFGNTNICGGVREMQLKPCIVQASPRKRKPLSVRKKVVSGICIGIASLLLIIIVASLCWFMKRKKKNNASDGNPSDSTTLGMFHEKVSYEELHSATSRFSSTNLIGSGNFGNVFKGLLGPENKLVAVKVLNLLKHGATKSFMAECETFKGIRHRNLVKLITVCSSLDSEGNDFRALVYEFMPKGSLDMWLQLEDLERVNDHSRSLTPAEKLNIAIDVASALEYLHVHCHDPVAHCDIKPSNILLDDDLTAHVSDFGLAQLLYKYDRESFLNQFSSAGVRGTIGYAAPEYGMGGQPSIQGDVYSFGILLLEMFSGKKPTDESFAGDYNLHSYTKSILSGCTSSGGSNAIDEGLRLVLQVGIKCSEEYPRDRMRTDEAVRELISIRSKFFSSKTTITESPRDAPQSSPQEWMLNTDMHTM

T1: BARELY ANY MERISTEM 3 (BAM3)-GFP (Arabidopsis thaliana) (UniProt O65440)
T1 sequence: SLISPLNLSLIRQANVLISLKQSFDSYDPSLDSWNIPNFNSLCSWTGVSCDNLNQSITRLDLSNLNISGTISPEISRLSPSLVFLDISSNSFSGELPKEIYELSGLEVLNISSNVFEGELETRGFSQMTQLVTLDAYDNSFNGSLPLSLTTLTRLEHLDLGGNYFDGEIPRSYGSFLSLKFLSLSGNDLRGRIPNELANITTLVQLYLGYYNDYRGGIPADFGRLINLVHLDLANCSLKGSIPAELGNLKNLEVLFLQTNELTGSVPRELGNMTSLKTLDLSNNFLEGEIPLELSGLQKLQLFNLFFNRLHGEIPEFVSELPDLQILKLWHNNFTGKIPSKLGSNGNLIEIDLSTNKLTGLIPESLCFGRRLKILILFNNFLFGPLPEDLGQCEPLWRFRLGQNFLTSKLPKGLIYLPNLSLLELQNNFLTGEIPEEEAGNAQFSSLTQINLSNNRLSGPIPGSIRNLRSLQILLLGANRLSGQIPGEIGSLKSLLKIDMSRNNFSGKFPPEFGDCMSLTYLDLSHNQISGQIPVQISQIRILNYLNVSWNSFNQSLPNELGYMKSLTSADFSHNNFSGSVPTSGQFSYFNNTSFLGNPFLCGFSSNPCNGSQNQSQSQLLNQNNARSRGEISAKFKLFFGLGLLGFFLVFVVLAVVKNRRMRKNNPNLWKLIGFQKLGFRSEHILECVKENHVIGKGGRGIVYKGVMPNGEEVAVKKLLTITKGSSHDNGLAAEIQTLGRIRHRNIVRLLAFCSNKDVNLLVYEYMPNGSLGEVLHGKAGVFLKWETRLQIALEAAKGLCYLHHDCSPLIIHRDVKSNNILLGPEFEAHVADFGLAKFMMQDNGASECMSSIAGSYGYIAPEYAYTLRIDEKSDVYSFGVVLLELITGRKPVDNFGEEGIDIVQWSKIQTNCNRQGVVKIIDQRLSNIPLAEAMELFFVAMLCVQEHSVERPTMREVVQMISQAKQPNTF

T2: CLAVATA 1 (CLV1), GFP-tagged (Arabidopsis thaliana) (UniProt Q9SYQ8)
T2 sequence: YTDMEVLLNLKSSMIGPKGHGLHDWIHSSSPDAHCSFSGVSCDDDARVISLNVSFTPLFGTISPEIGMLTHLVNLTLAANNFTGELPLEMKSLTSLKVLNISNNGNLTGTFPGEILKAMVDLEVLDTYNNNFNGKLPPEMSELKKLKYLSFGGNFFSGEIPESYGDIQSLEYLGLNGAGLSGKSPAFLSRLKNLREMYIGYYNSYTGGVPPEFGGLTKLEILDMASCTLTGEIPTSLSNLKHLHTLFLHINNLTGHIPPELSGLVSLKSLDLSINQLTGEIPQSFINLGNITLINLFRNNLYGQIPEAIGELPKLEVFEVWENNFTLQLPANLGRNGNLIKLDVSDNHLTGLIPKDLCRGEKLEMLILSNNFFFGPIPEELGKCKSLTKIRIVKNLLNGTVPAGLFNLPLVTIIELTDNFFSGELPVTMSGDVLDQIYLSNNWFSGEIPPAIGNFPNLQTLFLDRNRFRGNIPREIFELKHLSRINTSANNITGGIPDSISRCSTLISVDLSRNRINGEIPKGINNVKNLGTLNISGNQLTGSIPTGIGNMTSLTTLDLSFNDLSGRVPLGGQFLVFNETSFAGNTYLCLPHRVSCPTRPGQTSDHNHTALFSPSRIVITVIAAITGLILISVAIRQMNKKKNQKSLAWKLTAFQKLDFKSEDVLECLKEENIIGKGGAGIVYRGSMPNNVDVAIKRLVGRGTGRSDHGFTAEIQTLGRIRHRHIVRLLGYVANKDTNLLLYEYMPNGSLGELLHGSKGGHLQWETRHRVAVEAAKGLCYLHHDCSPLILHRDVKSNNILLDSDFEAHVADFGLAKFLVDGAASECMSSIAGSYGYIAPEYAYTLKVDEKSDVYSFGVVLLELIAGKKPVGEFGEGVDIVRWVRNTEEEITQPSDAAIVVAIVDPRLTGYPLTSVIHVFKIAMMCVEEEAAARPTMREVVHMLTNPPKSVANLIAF


Experiments:
Experiment in all cases: co-IP
[1] = biological target: … SENSING 2 (FLS2)-GFP (Arabidopsis thaliana) (UniProt Q9FL28)
[2] = biological target: ELONGATION FACTOR TU RECEPTOR (EFR)-GFP (Arabidopsis thaliana) (UniProt C0LGT6)
[3] = biological target: T1, BARELY ANY MERISTEM 3 (BAM3)-GFP (Arabidopsis thaliana)
[4] = biological target: T2, CLAVATA 1 (CLV1), GFP-tagged (Arabidopsis thaliana)

Binder	binding [1]	binding [2]	binding [3]	binding [4]
PO…-LIKE 4 (PLL4), HA-tagged (enzyme, UniProt Q9ZV25 1-654) MGNGIGKLSKCLTGGAGRNKKPELSILEPDPLDEGLGHSFCYVRPDPTRVSSSKVHSEEETTTFRTISGASVSANTATPLSTSLYDPYGHIDRAAAFESTTSFSSIPLQPIPRSSGPIVPGSGPLERGFLSGPIERGFMSGPLDGSSGPIDGKTGSDQFQRSFSHGLANLRVGSRKGSLVRVLRRAISKTITRGQNSIVAPIKPVKEPDWVFGSDKTRIHQIENNLTVNSLNFSSEGSLLDDDVSLESQNLQWAQGKAGEDRVHVVVSEEHGWLFVGIYDGFNGPDAPDYLLSHLYPAVHRELKGLLWDDPKTDAKSSDEADVENRDSSSEKKSKNWEESQRRWRCEWDRDLDRLLKDRSNGLDLDPDPNSSDVLKALSQALRKTEEAYLENADMMLDENPELALMGSCVLVMLMKGEDVYLMNVGDSRAVLGQKAESDYWIGKIKQDLERINEETMNDFDGCGDGEGASLVPTLSAFQLTVDHSTNVEEEVNRIRKEHPDDASAVSNERVKGSLKVTRAFGAGFLKQPKWNNALLEMFQIDYKGTSPYINCLPSLYHHRLGSKDQFLILSSDGLYQYFTNEEAVSEVELFITLQPEGDPAQHLVQELLFRAAKKAGMDFHELLEIPQGERRRYHDDVSIVVISLEGRMWKSCV	binds	binds	–	–
PO… (POL), HA-tagged (enzyme, UniProt Q8RWN7 1-856) MGNGTSRVVGCFVPSNDKNGVDLEFLEPLDEGLGHSFCYVRPSIFESPDITPSNSERFTIDSSTIDSETLTGSFRNDIVDDPSFLNRHNSKGLAETTFKAISGASVSANVSTARTGNQMALCSSDVLEPAASFESTSSFASIPLQPLPRGGSGPLNGFMSGPLERGFASGPLDRNNGFMSGPIEKGVMSGPLDVSDRSNFSAPLSFRRKKPRFQRFMRSVSGPMKSTLARTFSRRSGGLSWMHRFFLHPETRVSWAVGKDGKLHGEDPESCLESNRNLQWAHGKAGEDRVHVVLSEEQGWLFIGIYDGFSGPDAPDFVMSHLYKAIDKELEGLLWDYEEPSEDNQLQPDQEPPTEENMCDPESISEQHSKSVVAESEEVMIDDISSLGNTDTQIADGPPGDSAGPGKKSMRLYELLQLEQWEGEEIGLKRYGGNVALNNMTNQVENPSTSGGGAGNDPCTTDRSALDGIPNSGQRHGTKKSQISSKIRRMYQKQKSLRKKLFPWSYDWHREEGICVEEKIVESSGPIRRRWSGTVDHDAVLRAMARALESTEEAYMDMVEKSLDINPELALMGSCVLVMLMKDQDVYVMNVGDSRAILAQERLHDRHSNPGFGNDEGIGHKSRSRESLVRIELDRISEESPIHNQATPISVSNKNRDVTSYRLKMRAVQLSSDHSTSVEEEIWRIRSEHPEDDQSILKDRVKGQLKVTRAFGAGFLKKPNFNEALLEMFQVEYIGTDPYITCEPCTVHHRLTSSDRFMVLSSDGLYEYFSNEEVVAHVTWFIENVPEGDPAQYLIAELLSRAATKNGMEFHDLLDIPQGDRRKYHDDVSVMVVSLEGRIWRSSGQYYPERKQKFNR	–	–	binds	binds
PO…-LIKE 5 (PLL5), HA-tagged (enzyme, UniProt Q9LQN6 1-662) MGNGVTKLSICFTGGGGERLRPKDISVLLPDPLDEGLGHSFCYVRPDPTLISSSKVHSEEDTTTTTFRTISGASVSANTATPLSTSLYDPYGHIDRAAAFESTTSFSSIPLQPIPKSSGPIVLGSGPIERGFLSGPIERGFMSGPLDRVGLFSGPLDKPNSDHHHQFQRSFSHGLALRVGSRKRSLVRILRRAISKTMSRGQNSIVAPIKSVKDSDNWGIRSEKSRNLHNENLTVNSLNFSSEVSLDDDVSLENQNLQWAQGKAGEDRVHVVVSEEHGWLFVGIYDGFNGPDAPDYLLSHLYPVVHRELKGLLWDDSNVESKSQDLERSNGDESCSNQEKDETCERWWRCEWDRESQDLDRRLKEQISRRSGSDRLTNHSEVLEALSQALRKTEEAYLDTADKMLDENPELALMGSCVLVMLMKGEDIYVMNVGDSRAVLGQKSEPDYWLAKIRQDLERINEETMMNDLEGCEGDQSSLVPNLSAFQLTVDHSTNIEEEVERIRNEHPDDVTAVTNERVKGSLKVTRAFGAGFLKQPKWNNALLEMFQIDYVGKSPYINCLPSLYHHRLGSKDRFLILSSDGLYQYFTNEEAVSEVELFITLQPEGDPAQHLVQELLFRAAKKAGMDFHELLEIPQGERRRYHDDVSIVVISLEGRMWKSCV	binds	binds	–	–
